# Data taken from article PMC6647326.
# Sequences of proteins named here, by UniProt entry; tags and fusion partners are left off. A change or cut given only in a name is not applied to a line headed by its entry.
# UniProt Q920B9: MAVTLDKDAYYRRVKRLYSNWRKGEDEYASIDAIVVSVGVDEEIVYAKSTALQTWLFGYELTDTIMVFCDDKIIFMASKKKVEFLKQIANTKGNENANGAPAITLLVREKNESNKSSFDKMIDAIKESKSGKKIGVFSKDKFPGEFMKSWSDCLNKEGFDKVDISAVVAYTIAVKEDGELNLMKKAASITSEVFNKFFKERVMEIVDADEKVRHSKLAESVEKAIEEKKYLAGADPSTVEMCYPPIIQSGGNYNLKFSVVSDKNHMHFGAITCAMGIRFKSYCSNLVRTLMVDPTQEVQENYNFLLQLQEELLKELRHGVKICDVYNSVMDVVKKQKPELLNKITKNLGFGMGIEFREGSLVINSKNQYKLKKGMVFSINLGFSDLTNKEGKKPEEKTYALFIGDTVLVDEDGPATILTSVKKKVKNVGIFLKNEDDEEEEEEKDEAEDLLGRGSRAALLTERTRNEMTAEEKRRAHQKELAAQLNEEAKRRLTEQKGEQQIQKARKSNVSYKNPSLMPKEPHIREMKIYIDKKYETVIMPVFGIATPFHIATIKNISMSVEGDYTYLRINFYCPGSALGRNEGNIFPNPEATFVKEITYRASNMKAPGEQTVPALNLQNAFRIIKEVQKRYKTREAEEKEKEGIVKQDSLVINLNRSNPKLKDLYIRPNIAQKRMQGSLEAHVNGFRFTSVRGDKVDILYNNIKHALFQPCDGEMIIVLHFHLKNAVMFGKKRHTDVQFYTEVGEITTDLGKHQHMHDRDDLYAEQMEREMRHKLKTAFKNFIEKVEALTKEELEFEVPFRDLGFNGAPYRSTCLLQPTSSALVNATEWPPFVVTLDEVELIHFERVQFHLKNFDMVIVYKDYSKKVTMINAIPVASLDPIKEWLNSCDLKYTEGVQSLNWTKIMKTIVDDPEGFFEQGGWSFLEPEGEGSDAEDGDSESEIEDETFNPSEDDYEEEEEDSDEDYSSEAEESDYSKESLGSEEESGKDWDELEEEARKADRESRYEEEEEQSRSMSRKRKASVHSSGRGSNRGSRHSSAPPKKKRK
# These are yes or no findings as the source states them, for the method shown. Binding seen in cells or lysates may run through a third protein. Some binding calls cover weakened binding; strength is not graded here.
# Target: T1, endogenous TRIM33 (mouse (endogenous in immortalized macrophages)) (UniProt Q99PP7)
# T1 sequence: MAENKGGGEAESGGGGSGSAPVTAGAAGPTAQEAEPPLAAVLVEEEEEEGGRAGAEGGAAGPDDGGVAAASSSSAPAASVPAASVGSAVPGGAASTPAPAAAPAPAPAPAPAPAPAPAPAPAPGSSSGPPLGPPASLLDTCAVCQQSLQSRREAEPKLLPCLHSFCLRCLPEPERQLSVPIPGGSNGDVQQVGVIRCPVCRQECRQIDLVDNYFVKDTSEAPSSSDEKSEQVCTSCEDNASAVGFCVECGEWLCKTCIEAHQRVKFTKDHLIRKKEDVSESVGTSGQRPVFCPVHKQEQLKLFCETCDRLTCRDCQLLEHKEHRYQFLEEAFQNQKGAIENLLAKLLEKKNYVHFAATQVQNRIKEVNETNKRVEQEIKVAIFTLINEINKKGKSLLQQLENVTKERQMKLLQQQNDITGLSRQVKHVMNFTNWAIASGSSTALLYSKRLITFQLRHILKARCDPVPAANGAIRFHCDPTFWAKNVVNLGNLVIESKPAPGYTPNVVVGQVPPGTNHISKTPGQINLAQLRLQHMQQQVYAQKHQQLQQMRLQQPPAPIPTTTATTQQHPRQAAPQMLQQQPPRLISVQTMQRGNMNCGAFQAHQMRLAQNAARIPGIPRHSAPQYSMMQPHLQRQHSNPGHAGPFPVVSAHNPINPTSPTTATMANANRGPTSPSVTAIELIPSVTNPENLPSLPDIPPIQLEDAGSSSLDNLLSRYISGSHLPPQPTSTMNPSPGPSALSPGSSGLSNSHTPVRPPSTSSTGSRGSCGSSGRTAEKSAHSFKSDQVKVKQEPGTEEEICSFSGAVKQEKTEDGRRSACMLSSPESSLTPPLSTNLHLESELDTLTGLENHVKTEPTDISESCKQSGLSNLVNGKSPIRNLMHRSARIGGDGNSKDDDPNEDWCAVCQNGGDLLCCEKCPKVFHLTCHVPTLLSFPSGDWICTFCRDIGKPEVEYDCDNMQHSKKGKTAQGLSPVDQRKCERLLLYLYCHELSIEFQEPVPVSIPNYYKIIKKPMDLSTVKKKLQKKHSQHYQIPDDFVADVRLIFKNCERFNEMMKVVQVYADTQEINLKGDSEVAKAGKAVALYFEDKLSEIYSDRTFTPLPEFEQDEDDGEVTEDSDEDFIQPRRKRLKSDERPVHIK
# Experiment: co-IP; immunoprecipitation of endogenous proteins from nuclear extracts of immortalized macrophages, followed by immunoblotting
substance,measurement,value
FACT complex (heterodimer of SPT16 and SSRP1) (from UniProt Q920B9 1-1047; Q08943 1-708),binding,binds
